# Assay results reported in PubChem BioAssay (EPA / NIEHS).
# The chains behind the UniProt entries cited, without tags or fusion partners. Where a name states a change or a piece, a line headed by the entry shows the natural chain unless it says otherwise.
# UniProt Q98867: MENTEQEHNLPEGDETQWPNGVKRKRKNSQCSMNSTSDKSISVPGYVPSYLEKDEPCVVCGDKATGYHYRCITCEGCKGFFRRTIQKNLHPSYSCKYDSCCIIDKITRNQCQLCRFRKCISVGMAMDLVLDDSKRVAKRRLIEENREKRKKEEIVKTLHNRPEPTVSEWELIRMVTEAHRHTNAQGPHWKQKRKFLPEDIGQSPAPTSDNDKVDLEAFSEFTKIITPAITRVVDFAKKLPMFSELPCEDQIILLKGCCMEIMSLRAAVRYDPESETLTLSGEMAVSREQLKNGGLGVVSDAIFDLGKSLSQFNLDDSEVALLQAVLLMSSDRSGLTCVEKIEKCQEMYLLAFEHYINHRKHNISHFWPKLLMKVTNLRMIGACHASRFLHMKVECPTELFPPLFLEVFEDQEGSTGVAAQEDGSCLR
# UniProt P10827: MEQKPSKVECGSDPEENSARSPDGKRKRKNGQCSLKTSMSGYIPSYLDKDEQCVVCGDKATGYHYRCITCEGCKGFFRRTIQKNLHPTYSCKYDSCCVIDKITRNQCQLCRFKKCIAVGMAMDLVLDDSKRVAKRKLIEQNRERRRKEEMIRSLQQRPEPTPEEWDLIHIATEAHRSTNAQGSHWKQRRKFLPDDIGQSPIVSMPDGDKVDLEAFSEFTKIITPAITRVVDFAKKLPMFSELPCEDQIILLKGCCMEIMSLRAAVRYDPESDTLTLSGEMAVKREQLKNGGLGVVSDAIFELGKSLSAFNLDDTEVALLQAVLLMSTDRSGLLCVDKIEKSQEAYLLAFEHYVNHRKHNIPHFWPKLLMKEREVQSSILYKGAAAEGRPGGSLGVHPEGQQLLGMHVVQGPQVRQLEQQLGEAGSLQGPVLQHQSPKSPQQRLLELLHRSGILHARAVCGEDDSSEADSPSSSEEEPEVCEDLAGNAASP
# UniProt P15204: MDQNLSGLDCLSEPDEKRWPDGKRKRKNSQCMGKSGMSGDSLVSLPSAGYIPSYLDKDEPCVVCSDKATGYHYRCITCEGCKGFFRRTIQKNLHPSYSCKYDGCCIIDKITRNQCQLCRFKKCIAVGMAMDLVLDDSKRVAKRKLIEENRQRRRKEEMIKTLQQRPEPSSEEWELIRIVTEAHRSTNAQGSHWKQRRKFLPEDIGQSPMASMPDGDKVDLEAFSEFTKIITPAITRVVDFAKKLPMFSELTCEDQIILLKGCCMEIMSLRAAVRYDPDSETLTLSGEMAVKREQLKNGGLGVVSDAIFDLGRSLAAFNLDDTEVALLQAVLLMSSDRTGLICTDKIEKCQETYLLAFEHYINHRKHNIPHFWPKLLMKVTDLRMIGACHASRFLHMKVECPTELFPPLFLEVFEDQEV
# UniProt P10828: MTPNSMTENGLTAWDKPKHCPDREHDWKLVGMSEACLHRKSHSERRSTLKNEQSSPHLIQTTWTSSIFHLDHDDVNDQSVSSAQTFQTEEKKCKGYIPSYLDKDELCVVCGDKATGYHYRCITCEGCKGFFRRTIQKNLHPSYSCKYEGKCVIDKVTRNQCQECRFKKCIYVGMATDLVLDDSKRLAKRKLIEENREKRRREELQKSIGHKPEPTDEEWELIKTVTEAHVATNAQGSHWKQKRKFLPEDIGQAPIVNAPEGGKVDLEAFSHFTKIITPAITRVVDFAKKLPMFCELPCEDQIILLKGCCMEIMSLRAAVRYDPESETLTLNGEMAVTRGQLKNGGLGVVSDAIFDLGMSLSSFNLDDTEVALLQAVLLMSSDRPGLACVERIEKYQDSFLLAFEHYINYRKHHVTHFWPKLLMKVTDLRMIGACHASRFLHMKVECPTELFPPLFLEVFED
# UniProt P37238, whole entry, looked up: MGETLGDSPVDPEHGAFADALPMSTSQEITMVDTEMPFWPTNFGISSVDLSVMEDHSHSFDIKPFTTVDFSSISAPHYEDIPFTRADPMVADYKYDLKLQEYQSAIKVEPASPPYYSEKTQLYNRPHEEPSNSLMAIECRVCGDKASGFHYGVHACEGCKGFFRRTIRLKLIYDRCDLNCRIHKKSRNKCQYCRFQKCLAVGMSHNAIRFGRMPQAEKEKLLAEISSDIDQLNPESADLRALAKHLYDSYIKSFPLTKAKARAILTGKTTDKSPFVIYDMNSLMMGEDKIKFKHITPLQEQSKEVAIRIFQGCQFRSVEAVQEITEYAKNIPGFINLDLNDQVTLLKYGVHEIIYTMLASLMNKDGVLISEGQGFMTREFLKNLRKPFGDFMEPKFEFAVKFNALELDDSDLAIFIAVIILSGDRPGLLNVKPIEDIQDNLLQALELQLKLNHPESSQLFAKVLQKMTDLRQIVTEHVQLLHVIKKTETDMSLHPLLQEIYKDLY
# Where “and” joins values, the source holds several entries; their conditions need not be identical. Identical values can stand only once. Inconclusive means that the source gave no clear call. Such entries were picked first, then a sample of the others. For some assays here: Potencies beside an inconclusive call are fits to weak or partial responses and may not hold up. Some structures have more than one record in an assay (separate samples or runs), and their calls can disagree. Calls of active or inactive are those of the source. Rule for the calls, unless noted: active = hit-call score of the fitted dose curve at least 0.9, where 1 is the maximum; inconclusive = response in the unintended direction; inactive = score below 0.9.
# What was measured:
# [1] = target: Nuclear receptor subfamily 1 group I member 2 (Mus musculus) (UniProt O54915); test: ATG_mPXR_XSP2: Attagene TRANS-FACTORIAL Multi-Species (XSP1) HepG2 Assay for mouse Pregnane X Receptor (PXR) (AID 2283831)
# Method in brief: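 Reporter transcripts measured after 24 h dosing by RT-PCR with 6-FAM labelling, HpaI digestion and capillary electrophoresis. Transiently transfected HepG2 with NR-Gal4 chimeras; increase over DMSO baseline scored.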
# [2] = target: zebrafish Thyroid Hormone Receptor alpha (TRa), thraa (gene 30670) (UniProt Q98867); test: ATG_zfTRa_XSP2: Attagene TRANS-FACTORIAL Multi-Species (XSP1) HepG2 Assay for zebrafish Thyroid Hormone Receptor alpha (TRa) (AID 2283832);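 note: actives raise zebrafish TRa-Gal4 reporter transcript above DMSO baseline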
# Method in brief: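 Transient transfection of human HepG2 with GAL4-UAS reporter units, then 24 h chemical treatment. RNA isolated, reverse-transcribed, PCR-amplified, FAM-labelled, HpaI-digested and run on capillary electrophoresis. Gain-of-signal relative to DMSO.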
# [3] = system: zebrafish Peroxisome Proliferator-activated Receptor gamma (PPARg), gene 557037; test: ATG_zfPPARg_XSP2: Attagene TRANS-FACTORIAL Multi-Species (XSP2) HepG2 Assay for zebrafish Peroxisome Proliferator-activated Receptor gamma (PPARg) (AID 2283833);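 note: reporter mRNA from a zebrafish PPARg GAL4 chimera measured by RT-PCR and capillary electrophoresis; actives increase reporter signal over DMSO so AC50 reflects activation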
# Method in brief: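 After 24 h chemical exposure, RNA from transiently transfected HepG2 (chimeric NR-Gal4 TRANS reporters) was reverse-transcribed, PCR-amplified, 6-FAM-labelled, HpaI-cut and sized by capillary electrophoresis. Induction was scored in the positive direction relative to DMSO.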
# [4] = system: turtle Thyroid Hormone Receptor, alpha (TRa), gene 101949057; test: ATG_trTRa_XSP2: Attagene TRANS-FACTORIAL Multi-Species (XSP1) HepG2 Assay for turtle Thyroid Hormone Receptor, alpha (TRa) (AID 2283834);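 note: hits raise reporter mRNA over the DMSO baseline so AC50 marks activators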
# Method in brief: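 Turtle TRa-Gal4 chimera activity in transfected human HepG2 cells: reporter transcripts quantified by RT-PCR, 6-FAM labelling and capillary electrophoresis 24 h post-dosing; positive direction versus DMSO, medium containing 3 nM 6-alpha-fluorotestosterone and 1.5 nM norgestrel.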
# [5] = ATG_M_61_XSP2: Attagene TRANS-FACTORIAL Multi-Species (XSP2) HepG2 Assay for M61 Transcription Factor (Internal Marker) (AID 2283835; active = hit-call score of the fitted dose curve at least 0.9, where 1 is the maximum; inactive = score below 0.9;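 note: active means a rise in signal above the DMSO baseline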)
# Method in brief: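 HepG2 cells transiently transfected with multiple GAL4-UAS reporter units; reporter mRNA measured 24 h after dosing by RT-PCR, fluorescent labelling and capillary electrophoresis. Medium contained 3 nM 6-alpha-fluorotestosterone and 1.5 nM norgestrel; internal marker, DMSO baseline.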
# [6] = target: human Thyroid hormone Receptor alpha (TRa), THRA (gene 7067) (UniProt P10827); test: ATG_hTRa_XSP2: Attagene TRANS-FACTORIAL Multi-Species (XSP2) HepG2 Assay for human Thyroid hormone Receptor alpha (TRa) (AID 2283838)
# Method in brief: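 HepG2 cells were transiently transfected with GAL4-UAS reporter units for chimeric human TRa-Gal4 and dosed for 24 hours, with 3 nM 6-alpha-fluorotestosterone and 1.5 nM norgestrel present. Reporter mRNA was quantified by RT-PCR, FAM labelling and capillary electrophoresis, with gain of signal fitted versus DMSO.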
# [7] = target: frog Thyroid hormone Receptor alpha (TRa), thra-a (gene 397942) (UniProt P15204); test: ATG_frTRa_XSP2: Attagene TRANS-FACTORIAL Multi-Species (XSP2) HepG2 Assay for frog Thyroid hormone Receptor alpha (TRa) (AID 2283839);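 for AC50: AC50 reflects induction of frog TRa-driven reporter mRNA above DMSO baseline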
# Method in brief: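 Reporter transcripts were measured by RT-PCR with capillary electrophoresis after 24 h dosing of HepG2 carrying transiently transfected multi-reporter units, including a chimeric frog TRa-GAL4 construct. Activity was taken as increase over DMSO vehicle.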
# [8] = target: human Thyroid hormone Receptor beta (TRb), THRB (gene 7068) (UniProt P10828); test: ATG_hTRb_XSP2: Attagene TRANS-FACTORIAL Multi-Species (XSP2) HepG2 Assay for human Thyroid hormone Receptor beta (TRb) (AID 2283840);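 note: actives raise reporter mRNA so potency reflects agonist-like gain of signal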
# Method in brief: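 Activity of exogenous human TRb–Gal4 fusion measured by reporter mRNA from RT-PCR and capillary electrophoresis, 24 h after dosing transfected HepG2. 6-alpha-fluorotestosterone (3 nM) and norgestrel (1.5 nM) present. Gain-of-signal fit relative to DMSO.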
# [9] = target: mouse Peroxisome Proliferator-activated Receptor gamma (PPARg), Pparg (gene 19016) (UniProt P37238); test: ATG_mPPARg_XSP2: Attagene TRANS-FACTORIAL Multi-Species (XSP2) HepG2 Assay for mouse Peroxisome Proliferator-activated Receptor gamma (PPARg) (AID 2283830);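 note: hits are gains in reporter mRNA above DMSO so AC50 marks activation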
# Method in brief: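 HepG2 cells transiently transfected with GAL4-UAS reporter units for chimeric NR-Gal4 proteins including mouse PPARg, exposed 24 h; medium contained 3 nM 6-alpha-fluorotestosterone and 1.5 nM norgestrel. Reporter mRNA quantified by RT-PCR, HpaI digestion and capillary electrophoresis, vs DMSO.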
# [10] = ATG_XTT_Cytotoxicity_XSP2: Cytotoxicity Assessment in the Attagene TRANS-FACTORIAL Multi-Species (XSP2) HepG2 Assay (AID 2283837)
# Method in brief: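 HepG2 cells, transiently transfected with multiple reporter constructs, exposed to chemical for 24 h. Cell number assessed with XTT fluorescence read-out; loss of signal fitted relative to DMSO.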
# [11] = system: Sodium/Iodide Symporter (NIS), SLC5A5 (gene 6528); test: CPHEA_Stoker_NIS_Inhibition_RAIU: CPHEA's Radioactive Iodide Uptake (RAIU) Assay for Sodium/Iodide Symporter (NIS) Inhibition, Stoker and Laws Labs (AID 2283841)
# Method in brief: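 hNIS-HEK293T-EPA cells incubated 2 h at room temperature with compound (0.001–100 uM, 0.5% DMSO) and 329 pM final 125I in HBSS/10 mM HEPES, pH 7.4. Intracellular 125I counted; normalised to DMSO maximal uptake, triplicate, three biological replicates.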
compound,measurement,setting,value
CCCCCC(=O)O[C@]1(C(C)=O)CC[C@H]2[C@@H]3CCC4=CC(=O)CC[C@]4(C)[C@H]3CC[C@@]21C,AC50,[1],inconclusive: 100 µM
same,outcome,[1],inactive
same,AC50,[2],inconclusive: 100 µM
same,AC50,[3],inconclusive: 100 µM and active: 132 µM
same,AC50,[4],inconclusive: 100 µM
same,outcome,[5],inactive
same,AC50,[6],inconclusive: 37.2 µM and inconclusive: 82.3 nM
same,AC50,[7],inconclusive: 100 µM and inconclusive: 75.4 µM
same,AC50,[8],inconclusive: 16.3 µM
O=C(O)Cc1cc(I)c(Oc2cc(I)c(O)c(I)c2)c(I)c1,AC50,[9],active: 0.56 µM
same,outcome,[9],inactive
same,outcome,[1],inactive
same,AC50,[2],active: 123 nM and active: 54.3 nM
same,outcome,[3],inactive
same,AC50,[4],active: 91.9 nM and active: 48.7 nM
same,outcome,[5],inactive
same,AC50,[10],inconclusive: 1 µM
same,AC50,[6],active: 75.3 nM and active: 30.2 nM
same,AC50,[7],active: 86.6 nM and active: 15.1 nM
CC(=O)S[C@@H]1CC2=CC(=O)CC[C@]2(C)[C@H]2CC[C@@]3(C)[C@@H](CC[C@@]34CCC(=O)O4)[C@H]12,AC50,[9],inconclusive: 100 µM
same,AC50,[3],inconclusive: 100 µM
N[C@@H](Cc1cc(I)c(Oc2ccc(O)c(I)c2)c(I)c1)C(=O)O,AC50,[1],inconclusive: 0.0567 µM
same,AC50,[2],active: 0.534 nM and active: 449 nM
same,outcome,[3],inactive
same,AC50,[4],active: 0.636 nM and active: 73.3 nM
same,AC50,[7],active: 0.185 nM and active: 197 nM
Oc1cc2ccccc2c2ccccc12,AC50,[9],inconclusive: 56.8 µM
same,AC50,[1],inconclusive: 53.9 µM
same,outcome,[1],inactive
same,AC50,[2],active: 10.6 µM
same,outcome,[2],inactive
same,AC50,[3],inconclusive: 33.4 µM and inconclusive: 11.1 µM
same,AC50,[4],active: 10.6 µM
same,AC50,[6],inconclusive: 33.4 µM and active: 33.4 µM
same,AC50,[7],active: 33.4 µM
same,outcome,[7],inactive
same,AC50,[8],inconclusive: 33.4 µM
CSC(=O)c1cccc2nnsc12,outcome,[9],inactive
same,AC50,[1],inconclusive: 100 µM
same,AC50,[2],inconclusive: 183 µM and inconclusive: 82.3 nM
same,AC50,[3],inconclusive: 100 µM
same,AC50,[4],inconclusive: 100 µM
same,outcome,[4],inactive
same,AC50,[10],inconclusive: 100 µM
same,AC50,[6],inconclusive: 100 µM and inconclusive: 268 nM
same,AC50,[7],inconclusive: 100 µM
same,AC50,[8],inconclusive: 100 µM
O=C(c1ccccc1)c1ccc(O)cc1O,AC50,[9],inconclusive: 15.7 µM
same,outcome,[1],inactive
same,AC50,[3],inconclusive: 10 µM
same,AC50,[4],inconclusive: 0.000914 µM
same,AC50,[7],inconclusive: 0.000914 µM
same,AC50,[8],inconclusive: 0.136 µM
Cc1c(C)c2c(c(C)c1O)CCC(C)(COc1ccc(CC3SC(=O)NC3=O)cc1)O2 (stereo not drawn),outcome,[1],inactive
same,AC50,[2],inconclusive: 0.218 µM
same,outcome,[6],inactive
same,outcome,[8],inactive
N#Cc1ccc(C2CCCc3cncn32)cc1 (stereo not drawn),outcome,[1],inactive
same,AC50,[2],inconclusive: 13 µM
same,AC50,[4],inconclusive: 1.05 µM
same,outcome,[5],inactive
O=c1c(-c2ccc(O)cc2)coc2cc(O)ccc12,AC50,[1],inconclusive: 10 µM and inconclusive: 9.1 µM
same,AC50,[2],inconclusive: 9.1 µM
same,AC50,[3],inconclusive: 9.1 µM
same,AC50,[6],inconclusive: 2.31 µM
same,AC50,[8],inconclusive: 0.00104 µM
C=CCOC(=O)c1ccccc1C(=O)OCC=C,AC50,[2],inconclusive: 100 µM
same,AC50,[3],inconclusive: 100 µM
same,outcome,[3],inactive
same,outcome,[10],inactive
C=C1C[C@H]2[C@@H]3C=C(C)C4=CC(=O)CC[C@]4(C)[C@H]3CC[C@]2(C)[C@@]1(OC(C)=O)C(C)=O,AC50,[9],inconclusive: 63 µM
same,AC50,[2],inconclusive: 112 µM
same,outcome,[4],inactive
same,outcome,[10],inactive
same,AC50,[6],inconclusive: 65 µM
same,outcome,[6],inactive
same,AC50,[7],inconclusive: 65 µM
same,outcome,[11],inactive
O=C(O)/C=C/c1ccccc1,outcome,[9],inactive
same,AC50,[2],inconclusive: 100 µM
same,AC50,[4],inconclusive: 0.0823 µM
same,AC50,[7],inconclusive: 100 µM
